PubChem BioAssay AID504791 – Drosophila RNAi Screening Center – 2011
Assay: 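Factors in Argonaute-based small RNA production and activity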 (primary screen). Cell system: Drosophila S2-derived reporter cells. Reagent: long dsRNA against Drosophila genes, about 150-250 ng dsRNA per well (siRNA assay); about 80-120 ng (miRNA assay). Timing: about 5 days (siRNA assay); about 4 days (miRNA assay). Conditions: copper sulfate induction of reporters: 25 µM (siRNA assay); 200 mM stated (miRNA assay), 1-2 days before reading. Detection: 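Per-well ratio of Renilla over firefly light, expressed relative to that plate's average ratio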. Hit rule: 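a well was a first-pass pick when its plate-scaled ratio rose above 1.5 (siRNA assay) or 1.6 (miRNA assay), or dropped below 0.6; a gene counted only if two separate dsRNAs agreed on retest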.
The deposit covers about 23,000 reagents; shown is an unselected part of those that have a named target and a result. Of all reagents, 199 (0.86%) are marked active. 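Plate-scaled ratios behind the calls are not deposited; printed light signals are raw; many rows marked increased or decreased are still called inactive.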 Entries without a mark were called inactive. A plus sign joins genes that one reagent is predicted to hit. The record does not give: the direction of the score.

predicted target	DRSC id	stable siRNA reporter change	miRNA reporter change	stable assay Renilla, run 1 (luminescence)	stable assay firefly, run 1 (luminescence)
PGRP-SB2	DRSC11092			7087	4.07e5
Fadd	DRSC14122			6774	3.18e5
CG15056	DRSC19630			5948	4.14e5
Zip88E	DRSC15562			8311	4.11e5
Dph5	DRSC16653			8023	3.24e5
CG4613	DRSC10435			7789	3.75e5
cta	DRSC03769			32410	4.06e5
ca	DRSC15305			8912	4.88e5
ca	DRSC15306			5522	3.38e5
ca	DRSC16314			5771	3.40e5
tadr	DRSC03177			29017	1.18e6
pAbp	DRSC07659		reporter ratio lowered past the hit cutoff	7079	3.39e5
wge	DRSC15246			8726	3.78e5
wge	DRSC15672			6239	3.16e5
CG42241 (retired record)	DRSC04007			5642	4.11e5
PH4alphaNE2	DRSC16544			6267	3.82e5
Nha2	DRSC14689			6691	4.04e5
Nha2	DRSC15619	reporter ratio raised past the hit cutoff		9844	2.37e5
Nha2	DRSC15623			6490	3.21e5
CG10384	DRSC03933			5904	3.88e5
CG10384	DRSC04067			5508	3.44e5
eff	DRSC16940			6235	5.44e5
PolG1	DRSC03621			7698	4.61e5
CG9117	DRSC03141			7867	4.54e5
wrapper	DRSC04723			8310	6.78e5
CG31546	DRSC12317			8413	3.43e5
CG31663	DRSC00078			5151	3.93e5
CG31663	DRSC00389			13679	8.09e5
CG31663	DRSC00390			4027	4.36e5
CG31663	DRSC00393			7930	5.02e5
Cht7	DRSC08538			8719	5.19e5
Cht7	DRSC21783			10067	5.12e5
Ir7f	DRSC18012			6280	3.73e5
Cisd2	DRSC14904			6176	4.36e5

Next part, starting with the last 6 of the part before.
predicted target	DRSC id	stable siRNA reporter change	miRNA reporter change	stable assay Renilla, run 1 (luminescence)	stable assay firefly, run 1 (luminescence)
CG31663	DRSC00390			4027	4.36e5
CG31663	DRSC00393			7930	5.02e5
Cht7	DRSC08538			8719	5.19e5
Cht7	DRSC21783			10067	5.12e5
Ir7f	DRSC18012			6280	3.73e5
Cisd2	DRSC14904			6176	4.36e5
CG7778	DRSC03067			11855	6.82e5
Sgp	DRSC02195			8511	5.81e5
CG11293 (retired record)	DRSC04098			6415	3.68e5
Dcp-1	DRSC04609			3.48e5	2.49e5
Septin2	DRSC16855			10420	4.28e5
verm	DRSC11038			10473	4.06e5
Tmf	DRSC18368			5195	3.07e5
antr	DRSC22392			5779	6.96e5
CG4953	DRSC02792			29392	8.28e5
CycH	DRSC11861			7060	4.41e5
CycH	DRSC21308			3607	4.28e5
Cep135	DRSC09345			6494	3.90e5
Cep135	DRSC10244			7772	3.06e5
fz4	DRSC18780			6062	2.86e5
slv	DRSC07685			7646	4.50e5
CG11584	DRSC19408			5514	5.24e5
Ilp2	DRSC10968			8515	4.31e5
Jon25Bii	DRSC03114			7624	3.80e5
Mon1	DRSC00336			7267	3.89e5
Mon1	DRSC26726		reporter ratio lowered past the hit cutoff		
shn	DRSC05266			6010	3.55e5
shn	DRSC07681			7897	4.55e5
CG14424	DRSC18472			5607	3.38e5
HnRNP-K	DRSC07585			5850	5.51e5
HnRNP-K	DRSC22734			1995	2.89e5
CG32536 + CG32537	DRSC20074			4972	4.24e5
CG7006	DRSC16169			8622	3.17e5
CG17127	DRSC02581			7288	3.38e5
CG4766	DRSC17736			5091	3.89e5
CG13722	DRSC08331			5842	4.21e5
CG13722	DRSC21616			7922	4.45e5
Cyt-c1	DRSC10447			7971	6.23e5
CG14069	DRSC02372			6883	4.12e5
Tsp66E	DRSC09683			6568	4.07e5
Rab39	DRSC17827			6300	3.20e5
cDIP	DRSC14267			9346	3.95e5
rha	DRSC17044			8775	7.29e5
MED24	DRSC10944			4168	2.01e5
Atg4a	DRSC00656			91108	2.64e5
pen-2	DRSC05722			6879	3.97e5
CG34214	DRSC04490			13396	1.46e6
arx	DRSC10386	reporter ratio raised past the hit cutoff	reporter ratio raised past the hit cutoff	13734	2.64e5
snoRNA:Me28S-C3227a + snoRNA:Me18S-A1061 + snoRNA:Me28S-C3227b + 7 more	DRSC05497			6162	4.81e5
Drip	DRSC07405			6392	3.26e5
ppk23	DRSC20110			5599	4.16e5
CCHa2-R	DRSC04825			5359	4.78e5
CCHa2-R	DRSC04870			6635	3.66e5
CCHa2-R	DRSC04871			6084	3.59e5
cd	DRSC16157			7150	3.61e5
